Measurements: patent US6849639B2, “Integrin inhibitors and their methods of use” (Amgen Inc., priority 1999, dated 2005)
Counter-ions that a name gives are not always drawn. Some of these results come from one statement about several compounds together. At least one structure is not confirmed: it was looked up by name or label, or the drawing left a doubt.

These molecules were tested against integrin αvβ3, αvβ5 or αIIbβ3 (assay: Solid phase integrin binding assay (Vitronectin-Ru or Fibrinogen-Ru, integrin coated paramagnetic beads)). Settings: the integrin is not specified for the stated bound.
Parameters: species or system human

Row | SMILES | IC50
1 | O=C(O)CC(NC(=O)C1CC(=O)N(c2cccc(NC(=O)NCc3ccccc3)c2)C1)c1cccc(F)c1 (centres unmarked) [Example 41, 3-(3-Fluorophenyl)-3-{(5-oxo-1-(3-{(benzylamino)carbonylamino}phenyl)pyrrolidin-3-yl)carbonylamino}prooanoic acid, sodium salt] | ≤ 30 µM
2 | O=C(O)CC(NC(=O)C1CC(=O)N(c2cccc(NC(=O)NCc3ccccc3)c2)C1)c1cc(Cl)cc(Cl)c1O (centres unmarked) [Example 44, 3-(3,5-dichloro-2-hydroxyohenyl)-3-{(5-oxo-1-(3-{(benzylamino)carbonylamino}phenyl)pyrrolidin-3-yl)carbonylamino}propanoic acid] | ≤ 30 µM
3 | O=C(O)CC(NC(=O)C1CC(=O)N(c2cccc(NC(=O)NCc3cccs3)c2)C1)c1cc(Cl)cc(Cl)c1O (centres unmarked) [Example 46, 3-(3,5-dichloro-2-hydroxyphenyl)-3-{(5-oxo-1-(3-{((2-thienylmethyl)amino)carbonylamino}phenyl)pyrrolidin-3-yl)carbonylamino}propanoic acid] | ≤ 30 µM
4 | O=C(O)CC(NC(=O)C1CC(=O)N(c2cccc(CC(=O)NCc3ccco3)c2)C1)c1cccnc1 (centres unmarked) [Example 47, 3-{(1-(3-{(N-(2-furylmethyl)carbamoyl)methyl}phenyl)-5-oxopyrrolidin-3-yl)carbonylamino}-3-(3-pyridyl)propanoic acid] | ≤ 30 µM
5 | CCCCNC(=O)Cc1cccc(N2CC(C(=O)NC(CC(=O)O)c3cccnc3)CC2=O)c1 (centres unmarked) [Example 48, 3-((1-{3-((N-butylcarbamoyl)methyl)phenyl}-5-oxopyrrolidin-3-yl)carbonylamino)-3-(3-pyridyl)propanoic acid] | ≤ 30 µM
6 | O=C(O)CC(NC(=O)C1CC(=O)N(c2cccc(CC(=O)NCc3ccccc3)c2)C1)c1cccnc1 (centres unmarked) [Example 49, 3-{(5-oxo-1-(3-{(N-benzylcarbamoyl)methyl}phenyl)pyrrolidin-3-yl)carbonylamino}-3-(3-pyridyl)propanoic acid] | ≤ 30 µM
7 | O=C(O)CC(NC(=O)C1CC(=O)N(c2cccc(CC(=O)NCc3cccs3)c2)C1)c1cccnc1 (centres unmarked) [Example 50, 3-{(5-oxo-1-(3-{(N-(2-thienylmethyl)carbamoyl)methyl}phenyl)pyrrolidin-3-yl)carbonylamino}-3-(3-pyridyl)propanoic acid] | ≤ 30 µM
8 | N=C(N)Nc1cccc(N2CC(C(=O)NC(CC(=O)O)c3cc(Cl)cc(Cl)c3)CC2=O)c1 (centres unmarked) [Example 54, 3-({1-(3-(amidinoamino)phenyl)-5-oxopyrrolidin-3-yl}carbonylamino)-3-(3.5-dichlorophenyl)propanoic acid, trifluoroacetate] | ≤ 30 µM
9 | O=C(O)CC(NC(=O)C1CC(=O)N(c2cccc(NC3=NCCN3)c2)C1)c1cc(Cl)cc(Cl)c1 (centres unmarked) [Example 55, 3-(3,5-dichlorophenyl)-3-({1-(3-(2-imidazolin-2-ylamino)phenyl)-5-oxopyrrolidin-3-yl}carbonylamino)propanoic acid, trifluoroactate] | ≤ 30 µM
10 | O=C(O)CC(NC(=O)C1CC(=O)N(c2cccc(NC3=NCCCN3)c2)C1)c1cc(Cl)cc(Cl)c1 (centres unmarked) [Example 56, 3-(3,5-dichlorophenyl)-3-({5-oxo-1-(3-(3,4,5,6-tetrahydropyrimidin-2-ylamino)phenyl)pyrrolidin-3-yl}carbonylamino)propanoic acid, trifluoroacetate] | ≤ 30 µM
11 | O=C(O)CC(NC(=O)C1CC(=O)N(c2cccc(NC3=NCCCN3)c2)C1)c1cccnc1 (centres unmarked) [Example 57, 3-({5-oxo-1-(3-(3,4,5,6-tetrahydropyrimidin-2-ylamino)phenyl)pyrrolidin-3-yl}carbonylamino)-3-(3-pyridyl)propanoic acid, trifluoroacetate] | ≤ 30 µM
12 | O=C(O)CC(NC(=O)C1CC(=O)N(c2cccc(NC3=NCCN3)c2)C1)c1cc(Cl)cc(Cl)c1O (centres unmarked) [Example 58, 3-(3,5-dichloro-2-hydroxyphenyl)-3-({1-(3-(2-imidazolin-2-ylamino)phenyl)-5-oxopyrrolidin-3-yl}carbonylamino)propanoic acid, trifluoroacetate] | ≤ 30 µM
13 | O=C(O)CC(NC(=O)C1CC(=O)N(c2cccc(NC3=NCCCN3)c2)C1)c1cc(Cl)cc(Cl)c1O (centres unmarked) [Example 59, 3-(3,5-dichloro-2-hydroxyphenyl)-3-({5-oxo-1-(3-(3,4,5,6-tetrahydropyrimidin-2-ylamino)phenyl)pyrrolidin-3-yl}carbonylamino)propanoic acid, trifluoroacetate] | ≤ 30 µM
14 | CN(C)CCNC(=O)Nc1cccc(N2CC(C(=O)NC(CC(=O)O)c3cccnc3)CC2=O)c1 (centres unmarked) [Example 60, 3-({1-(3-({N-(2-(dimethylamino)ethyl)carbamoyl}amino)phenyl)-5-oxopyrrolidin-3-yl}carbonylamino)-3-(3-pyridyl)propanoic acid] | ≤ 30 µM
15 | O=C(O)C[C@@H](NC(=O)[C@@H]1CC(=O)N(c2cccc(NC(=O)NCc3ccccc3)c2)C1)c1cccnc1 [Example 61, (3R)-3-{((3R)-5-oxo-1-(-{(benzylamino)carbonylamino}phenyl)pyrrolidin-3-yl)carbonylamino}-3-(3-pyridyl)propanoic acid, trifluoroacetate] | ≤ 30 µM
16 | O=C(O)CC(NC(=O)C1CC(=O)N(c2cc(NC(=O)NCc3cccs3)ccc2F)C1)c1cccnc1 (centres unmarked) [Example 63, 3-{(1-(2-fluoro-5-{((2-thienylmethyl)amino)carbonylamino}phenyl)-5-oxopyrrolidin-3-yl)carbonylamino}-3-(3-pyridyl)propanoic acid. sodium salt] | ≤ 30 µM
17 | CCN(Cc1ccncc1)C(=O)Nc1cccc(N2CC(C(=O)NC(CC(=O)O)c3cccnc3)CC2=O)c1 (centres unmarked) [Example 64, 3-{(1-(3-{(N-ethyl-N-(4-pyridylmethyl)amino)carbonylamino}phenyl)-5-oxopyrrolidin-3-yl)carbonylamino}-3-(3-pyridyl)propanoic acid, sodium salt] | ≤ 30 µM
18 | O=C(NCc1ccccc1)Nc1cccc(N2CC(C(=O)NCC(NC(=O)OCc3ccccc3)C(=O)O)CC2=O)c1 (centres unmarked) [Example 65, 3-{(5-oxo-1-(3-{(benzylamino)carbonylamino}phenyl)pyrrolidin-3-yl)carbonylamino}-2-((phenylmethoxy)carbonylamino)propanoic acid, sodium salt] | ≤ 30 µM
19 | O=C(O)CC(NC(=O)C1CC(=O)N(c2cccc(CNc3ccccn3)c2)C1)c1cccnc1 (centres unmarked) [Example 66, 3-{(5-oxo-1-{3-((2-pyridylamino)methyl)phenyl}pyrrolidin-3-yl)carbonylamino}-3-(3-pyridyl)propanoic acid, sodium salt] | ≤ 30 µM
20 | O=C(O)CC(NC(=O)C1CC(=O)N(c2cccc(NC(=O)OCc3ccccc3)c2)C1)c1cccnc1 (centres unmarked) [Example 67, 3-((5-oxo-1-{3-(((phenylmethoxy)carbonylamino)phenyl}pyrrolidin-3-yl)carbonylamino}-3-(3-pyridyl)propanoic acid, sodium salt] | ≤ 30 µM
